According to PubChem BioAssay AID1487 (National Center for Advancing Translational Sciences (NCATS), 2009):
The other results are listed elsewhere or left out. These are further read-outs of the screen, such as a control signal, another cell line or another target. No call is given for them. Most of these compounds were active or inconclusive in the main read-out, so they are no random draw. Potencies come from curve fits of mixed quality, noted in brackets.

Assay: qHTS Assay for Modulators of Lamin A Splicing
Conditions: HeLa LMNA splicing GFP/RFP minigene ratio, 48 h
Method in brief: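 S3 HeLa cells stably expressing lamin A-EGFP splicing minigene plus DsRed2, 600 cells/well, 48 h compound exposure at 37C. Laser-scanning cytometry; analysed as GFP (500-530 nm)/RFP (575-640 nm) total intensity ratio; 0.5% DMSO vehicle.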

[1] = measured here: GFP splicing reporter channel
[2] = measured here: RFP viability control channel

| Structure (SMILES) | AC50 [1] | AC50 [2] |
| --- | --- | --- |
| COc1ccc(Cl)cc1NC(=O)C(C)N1CCc2ccccc21 (stereo not drawn) | 0.0631 µM [rising, full curve, poor fit] | – |
| CCCCn1c(NC(=O)c2ccccc2Cl)c(C#N)c2nc3ccccc3nc21 | 17.8 µM [falling, single point] | 31.6 µM [falling, single point] |
| Clc1ccc(N2CCN(Cc3c[nH]c4ncccc34)CC2)cc1 | – | 0.00501 µM [falling, full curve, poor fit] |
| COc1cc(OC)cc(C(=O)Nn2cc(C(=O)Nc3c(F)cccc3F)c3ccccc3c2=O)c1 | 35.5 µM [rising, single point] | 35.5 µM [rising, single point] |
| Cc1cc(C(=O)CSc2nc(N)cc(=O)[nH]2)c(C)n1-c1cccc(F)c1 | 1 µM [rising, single point] | 3.16 µM [rising, full curve] |
| CCS(=O)(=O)N1CCC(c2nc(-c3ccc(C)cc3)no2)CC1 | – | 12.6 µM [rising, partial curve] |
| O=C(NCc1ccco1)C(=O)NCC1OCCN1S(=O)(=O)c1ccc(Cl)cc1 (stereo not drawn) | 0.708 µM [falling, single point] | – |
| Cc1c(Cl)cccc1NC(=S)N1CCC(C(N)=O)(N2CCCCC2)CC1 | 12.6 µM [rising, single point] | – |
| Cc1ccc(-n2nnnc2SCC(=O)N(CC(C)C)c2c(N)n(CC(C)C)c(=O)[nH]c2=O)cc1 | 0.00316 µM [rising, full curve, poor fit] | – |
| Cc1ccc(S(=O)(=O)N2N=C3CCCCC3C2(O)C(F)(F)F)cc1 (stereo not drawn) | 0.00447 µM [rising, full curve, poor fit] | 0.00398 µM [rising, full curve, poor fit] |
| CC1CCN(S(=O)(=O)N2CCC(C(=O)NCc3ccc4c(c3)OCO4)CC2)CC1 | 35.5 µM [rising, single point] | 35.5 µM [rising, single point] |
| O=C(Nc1ccc(Cl)cc1)Nc1nnc(CSCc2ccccc2Cl)s1 | 17.8 µM [rising, single point] | 35.5 µM [rising, single point] |
| NS(=O)(=O)c1ccc(CCN2C(=O)/C(=C\c3ccc(Cl)cc3)SC2=S)cc1 | – | 12.6 µM [rising, partial curve] |
| COc1ccc(N2CC(NC(=O)C3CC3)CC2=O)cc1 (stereo not drawn) | – | 25.1 µM [falling, single point] |
| COc1cccc(NC(=O)CSc2nc(=O)n(Cc3ccccn3)c3c2CCC3)c1 | 3.16 µM [falling, partial curve, poor fit] | – |
| COCc1nc(-c2ccc(-c3ccc(C)cc3)nc2OC)no1 | 11.2 µM [rising, single point] | 10 µM [rising, single point] |
| Cc1c(O)c2c3c(cccc3c1O)C(=O)N(c1ccccc1)C2=O | – | 35.5 µM [rising, partial curve] |

One compound at a time, from the list above. Order of values: AC50 [1] | AC50 [2]
`Cc1c(Cl)cccc1NC(=S)N1CCC(C(N)=O)(N2CCCCC2)CC1` as listed: 12.6 µM [rising, single point] | –
`O=C(NCc1ccco1)C(=O)NCC1OCCN1S(=O)(=O)c1ccc(Cl)cc1` (stereo not drawn) as listed: 0.708 µM [falling, single point] | –

Next part:

| Structure (SMILES) | AC50 [1] | AC50 [2] |
| --- | --- | --- |
| CC1CCCCN1C(=O)COC(=O)/C=C/c1ccc2ccccc2n1 (stereo not drawn) | 22.4 µM [falling, single point] | – |
| COc1ccc(N(C)S(=O)(=O)c2cccc(C(=O)NCc3ccc4c(c3)OCO4)c2)cc1 | 12.6 µM [falling, partial curve, poor fit] | 35.5 µM [falling, partial curve, poor fit] |
| Cc1ccc(S(=O)(=O)NCCC(C)C)cc1[N+](=O)[O-] | 10 µM [rising, partial curve, poor fit] | – |
| CC(C)Cc1nc2oc3c(NCc4cccnc4)ncnc3c2c2c1CCC2 | 3.55 µM [rising, single point] | 5.62 µM [rising, single point] |
| CCCN(CCC)C(=O)C1CCN(c2cc(C)nc3c(-c4ccc(OC)c(OC)c4)c(C)nn23)CC1 | – | 2.24 µM [rising, partial curve, poor fit] |
| Cc1c(C(=O)NCc2ccoc2)oc2ccc3c(c12)C(=O)CC(C)(C)O3 | – | 11.2 µM [rising, partial curve] |
| COc1ccc(C(C)=O)cc1CSc1nnc(Nc2ccc(C)cc2)s1 | – | 14.1 µM [rising, single point] |
| CCOC(=O)c1[nH]c(C)c(CCC(=O)Nc2cccc(C(F)(F)F)c2)c1C | 11.2 µM [rising, partial curve, poor fit] | – |
| Cc1ccccc1SCC(=O)N1CCN(c2ccc(C(F)(F)F)cn2)CC1 | – | 25.1 µM [rising, partial curve] |
| CCN(CC)c1ccc(-c2nn3c(-c4cccnc4)nnc3s2)cc1 | 11.2 µM [falling, partial curve] | 12.6 µM [falling, partial curve] |
| COc1ccc(N2C(=O)/C(=C\c3ccco3)N=C2SCC(=O)NC(C)C)cc1Cl | – | 31.6 µM [rising, partial curve, poor fit] |
| COc1ccc(/C=C/c2nc(-c3ccccc3O)n[nH]2)cc1 | – | 22.4 µM [rising, single point] |
| CCOC(=O)c1c(CSc2ccccc2)oc2ccc(O)cc12 | 6.31 µM [rising, full curve] | 14.1 µM [rising, partial curve] |
| CN1CCN(C(=O)c2cc3ccccc3oc2=O)CC1 | 0.794 µM [falling, full curve, poor fit] | 0.501 µM [falling, full curve, poor fit] |
| Cc1ccc(C(=O)NCC(c2ccco2)S(=O)(=O)c2ccccc2)cc1C (stereo not drawn) | 0.0251 µM [rising, full curve, poor fit] | 0.0251 µM [rising, full curve, poor fit] |
| Cc1ccc(C(=O)Nn2c(O)c(C=C3N=c4ccccc4=N3)sc2=S)cc1 | – | 25.1 µM [falling, single point] |
| CC(/C=N\NC(=O)Cn1c(C)nc2ccccc21)=C\c1ccccc1 | 35.5 µM [falling, single point] | 35.5 µM [falling, single point] |
